Among the data in publication PMC5378395 are binding values, retold here.

Chains of the proteins cited; added tags and fusions are not shown.
UniProt Q6NXT1: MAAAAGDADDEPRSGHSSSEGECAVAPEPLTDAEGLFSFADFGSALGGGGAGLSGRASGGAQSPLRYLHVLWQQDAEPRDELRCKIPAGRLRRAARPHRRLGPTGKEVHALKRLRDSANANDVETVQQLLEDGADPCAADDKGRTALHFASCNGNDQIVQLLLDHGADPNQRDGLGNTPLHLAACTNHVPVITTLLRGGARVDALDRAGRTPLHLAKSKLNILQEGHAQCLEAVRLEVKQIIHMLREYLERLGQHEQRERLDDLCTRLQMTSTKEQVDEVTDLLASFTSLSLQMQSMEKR

The target in assay [1] is ANKRD54 wild-type with biotinylation target-domain (pEBB-pp-ANKRD54) (UniProt Q6NXT1). Nature of the assay: phage display bio-panning; biotinylated ANKRD54 from transfected HEK 293T lysate immobilized on M-280 streptavidin beads, incubated with phages of a library of all 296 human SH3 domains; retained clones sequenced; three experiments; only the target purified.
Assay [2] shares this target. Put plainly: pull-down; ANKRD54-BTD-wt and BTK mutants transfected separately into Cos7 cells; ANKRD54 enriched on streptavidin beads, then incubated with each BTK lysate; immunoblot (Fig 6); only the target purified.
Assay [3] has as its target commercially available recombinant ANKRD54 (UniProt Q6NXT1). Put plainly: ELISA; phage-ELISA; commercially available recombinant ANKRD54 adhered to plastic; SH3 phage dilutions 1:10 to 1:160; data not shown; only the target purified.

Numbering of substitutions follows the chain as printed. Names may count otherwise. These are yes or no findings as the source states them, for the method shown. For some assays here: In cells and extracts the contact can be indirect. Some entries that bind do so weakly or less than the wild type.

B1: DLG3 SH3 domain displayed on phage (domain or fragment, UniProt Q92796 501-571)
chain: KRSLYVRALFDYDRTRDSCLPSQGLSFSYGDILHVINASDDEWWQARLVTPHGESEQIGVIPSKKRVEKKE
As to B1, in assay [1], the binding entry is “binds”.

B2: BTK P265A mutant (protein, UniProt Q06187 1-659)
chain: MAAVILESIFLKRSQQKKKTSPLNFKKRLFLLTVHKLSYYEYDFERGRRGSKKGSIDVEKITCVETVVPEKNPPPERQIPRRGEESSEMEQISIIERFPYPFQVVYDEGPLYVFSPTEELRKRWIHQLKNVIRYNSDLVQKYHPCFWIDGQYLCCSQTAKNAMGCQILENRNGSLKPGSSHRKTKKPLPPTPEEDQILKKPLPPEPAAAPVSTSELKKVVALYDYMPMNANDLQLRKGDEYFILEESNLPWWRARDKNGQEGYIASNYVTEAEDSIEMYEWYSKHMTRSQAEQLLKQEGKEGGFIVRDSSKAGKYTVSVFAKSTGDPQGVIRHYVVCSTPQSQYYLAEKHLFSTIPELINYHQHNSAGLISRLKYPVSQQNKNAPSTAGLGYGSWEIDPKDLTFLKELGTGQFGVVKYGKWRGQYDVAIKMIKEGSMSEDEFIEEAKVMMNLSHEKLVQLYGVCTKQRPIFIITEYMANGCLLNYLREMRHRFQTQQLLEMCKDVCEAMEYLESKQFLHRDLAARNCLVNDQGVVKVSDFGLSRYVLDDEYTSSVGSKFPVRWSPPEVLMYSKFSSKSDIWAFGVLMWEIYSLGKMPYERFTNSETAEHIAQGLRLYRPHLASEKVYTIMYSCWHEKADERPTFKILLSNILDVMDEES
As to B2, in assay [2], the binding entry is recorded as “binds”.

B3: BTK Y268A mutant (protein, UniProt Q06187 1-659)
chain: B2 chain with A265P, Y268A
B3: in assay [2], the binding entry was “no binding”.

B4: BTK P265A/Y268A double mutant (protein, UniProt Q06187 1-659)
chain: B2 chain with Y268A
Regarding B4, the binding entry in assay [2] is “no binding”.

B5: GAS7 SH3 domain displayed on phage (domain or fragment, UniProt O60861 1-62)
chain: MSGARCRTLYPFSGERHGQGLRFAAGELITLLQVPDGGWWEGEKEDGLRGWFPASYVQLLEK
B5: the binding entry in assay [1] is reported as “binds”.

B6: SH3YL1 SH3 domain displayed on phage (domain or fragment, UniProt Q96HL8 283-342)
chain: NQPIEVTALYSFEGQQPGDLNFQAGDRITVISKTDSHFDWWEGKLRGQTGIFPANYVTMN
Take B6: the binding result in assay [1] was “binds”.

B7: SNX33 SH3 domain displayed on phage (domain or fragment, UniProt Q8WV41 1-61)
chain: MALKGRALYDFHSENKEEISIQQDEDLVIFSETSLDGWLQGQNSRGETGLFPASYVEIVRS
With B7, the binding result is “binds” in assay [1] and “binds weakly” in assay [3].

B8: ARHGAP26 SH3 domain displayed on phage (domain or fragment, UniProt Q9UNA1 756-814)
chain: TPFRKAKALYACKAEHDSELSFTAGTVFDNVHPSQEPGWLEGTLNGKTGLIPENYVEFL
For B8, the binding entry in assay [1] is “binds”.

B9: PLCγ1 SH3 domain displayed on phage (domain or fragment, UniProt P19174 791-851)
chain: TFKCAVKALFDYKAQREDELTFIKSAIIQNVEKQEGGWWRGDYGGKKQLWFPSNYVEEMVN
As to B9, the binding entry in assay [1] is given as “binds”; in assay [3], “binds weakly”.
